Some of the results follow.
Compound: Cc1cc(Nc2cc(N3CCN(C)CC3)nc(Sc3ccc(NC(=O)C4CC4)cc3)n2)n[nH]1 [tozasertib]
Test: log2 fold change, soluble protein after heating vs DMSO (PISA); higher = thermal stabilisation; K562 cells, 10 uM, 30 min; active = over 0.2 and 3.5 SD of the protein, either way, in both replicates (recomputed)
Method in brief: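 Soluble protein was defined as the supernatant after 21,000xg for 90 min. It came from K562 cells at 2×10^6 cells/mL given 10 μM compound for 30 min, heated in aliquots for 3 min across 48°C-58°C, pooled, and extracted in PBS with 0.5% NP-40 at 4°C, and was quantified by TMTpro 16plex LC-MS/MS with equalised channel sums. Thermal stability against control samples, from duplicates, is reported as log2 fold change.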

The chains behind the UniProt entries cited, without tags or fusion partners. Where a name states a change or a piece, a line headed by the entry shows the natural chain unless it says otherwise.
UniProt Q8N465: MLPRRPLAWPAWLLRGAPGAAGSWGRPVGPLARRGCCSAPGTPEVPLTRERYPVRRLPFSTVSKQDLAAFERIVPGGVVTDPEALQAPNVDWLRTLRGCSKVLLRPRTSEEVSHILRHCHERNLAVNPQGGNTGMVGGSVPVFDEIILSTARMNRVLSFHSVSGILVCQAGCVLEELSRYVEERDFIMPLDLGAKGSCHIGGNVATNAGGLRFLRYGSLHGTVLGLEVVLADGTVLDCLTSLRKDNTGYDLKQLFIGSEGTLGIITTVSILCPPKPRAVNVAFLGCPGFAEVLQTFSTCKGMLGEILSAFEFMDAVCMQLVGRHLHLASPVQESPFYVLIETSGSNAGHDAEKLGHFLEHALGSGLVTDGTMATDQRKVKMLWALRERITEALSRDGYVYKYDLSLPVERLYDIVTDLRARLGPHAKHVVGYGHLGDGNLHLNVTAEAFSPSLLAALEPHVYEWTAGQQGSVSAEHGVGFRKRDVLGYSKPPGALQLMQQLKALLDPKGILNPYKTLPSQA
UniProt P32929, whole entry, looked up: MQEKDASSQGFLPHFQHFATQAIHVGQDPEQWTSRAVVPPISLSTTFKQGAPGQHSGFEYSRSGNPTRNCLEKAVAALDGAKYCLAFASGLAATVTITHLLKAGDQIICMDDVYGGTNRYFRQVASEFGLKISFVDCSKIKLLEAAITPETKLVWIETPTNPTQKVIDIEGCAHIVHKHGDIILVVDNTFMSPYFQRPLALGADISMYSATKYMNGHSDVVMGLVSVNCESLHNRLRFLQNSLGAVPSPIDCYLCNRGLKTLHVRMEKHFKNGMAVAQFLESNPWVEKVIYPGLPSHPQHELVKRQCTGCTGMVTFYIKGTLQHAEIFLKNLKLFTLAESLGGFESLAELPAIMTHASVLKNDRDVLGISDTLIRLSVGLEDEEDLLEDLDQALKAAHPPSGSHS
UniProt P14868: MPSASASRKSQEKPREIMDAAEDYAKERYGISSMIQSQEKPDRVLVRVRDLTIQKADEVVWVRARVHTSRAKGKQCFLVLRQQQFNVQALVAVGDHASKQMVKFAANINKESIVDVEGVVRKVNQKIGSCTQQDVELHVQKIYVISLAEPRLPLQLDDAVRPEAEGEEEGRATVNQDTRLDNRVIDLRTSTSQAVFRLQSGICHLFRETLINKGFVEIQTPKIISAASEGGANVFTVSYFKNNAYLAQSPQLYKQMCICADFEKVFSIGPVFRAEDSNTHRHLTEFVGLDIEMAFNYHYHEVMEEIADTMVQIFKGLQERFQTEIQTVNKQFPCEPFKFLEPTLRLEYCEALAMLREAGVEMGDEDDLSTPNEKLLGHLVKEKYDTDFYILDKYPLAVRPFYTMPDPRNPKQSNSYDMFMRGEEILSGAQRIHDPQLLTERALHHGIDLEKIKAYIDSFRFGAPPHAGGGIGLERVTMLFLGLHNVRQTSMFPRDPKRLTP
UniProt Q96F07, whole entry, looked up: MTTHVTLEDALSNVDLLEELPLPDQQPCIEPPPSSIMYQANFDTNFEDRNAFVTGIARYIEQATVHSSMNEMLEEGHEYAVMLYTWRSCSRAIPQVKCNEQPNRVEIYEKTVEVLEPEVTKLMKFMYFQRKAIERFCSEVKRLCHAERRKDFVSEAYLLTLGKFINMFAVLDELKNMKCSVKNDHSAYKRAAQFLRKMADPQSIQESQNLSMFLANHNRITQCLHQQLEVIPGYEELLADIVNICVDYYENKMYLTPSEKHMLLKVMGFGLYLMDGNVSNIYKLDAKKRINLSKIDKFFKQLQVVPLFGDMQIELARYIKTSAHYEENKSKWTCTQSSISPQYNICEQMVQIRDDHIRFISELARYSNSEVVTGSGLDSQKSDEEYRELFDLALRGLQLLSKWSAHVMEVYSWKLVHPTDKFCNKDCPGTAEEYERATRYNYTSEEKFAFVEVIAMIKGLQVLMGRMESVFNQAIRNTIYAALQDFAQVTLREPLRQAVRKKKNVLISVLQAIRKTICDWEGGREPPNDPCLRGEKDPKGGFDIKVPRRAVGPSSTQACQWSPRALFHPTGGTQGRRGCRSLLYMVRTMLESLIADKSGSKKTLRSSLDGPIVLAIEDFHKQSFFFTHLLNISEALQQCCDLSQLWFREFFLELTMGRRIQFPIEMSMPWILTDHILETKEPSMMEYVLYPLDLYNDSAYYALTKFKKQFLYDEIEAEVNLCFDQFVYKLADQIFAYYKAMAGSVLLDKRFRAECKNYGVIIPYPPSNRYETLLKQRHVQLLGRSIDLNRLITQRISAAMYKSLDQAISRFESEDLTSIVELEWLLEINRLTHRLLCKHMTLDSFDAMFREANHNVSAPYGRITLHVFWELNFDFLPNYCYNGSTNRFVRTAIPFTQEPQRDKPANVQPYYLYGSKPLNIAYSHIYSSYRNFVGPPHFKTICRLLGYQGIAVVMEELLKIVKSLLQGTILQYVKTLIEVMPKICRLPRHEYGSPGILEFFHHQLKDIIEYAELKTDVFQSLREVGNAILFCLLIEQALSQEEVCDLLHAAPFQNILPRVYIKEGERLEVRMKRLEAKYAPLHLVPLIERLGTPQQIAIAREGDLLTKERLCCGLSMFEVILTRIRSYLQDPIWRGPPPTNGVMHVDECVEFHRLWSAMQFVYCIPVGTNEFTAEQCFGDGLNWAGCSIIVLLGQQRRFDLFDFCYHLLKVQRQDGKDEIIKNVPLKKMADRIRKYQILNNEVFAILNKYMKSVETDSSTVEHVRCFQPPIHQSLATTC
UniProt Q66K64, whole entry, looked up: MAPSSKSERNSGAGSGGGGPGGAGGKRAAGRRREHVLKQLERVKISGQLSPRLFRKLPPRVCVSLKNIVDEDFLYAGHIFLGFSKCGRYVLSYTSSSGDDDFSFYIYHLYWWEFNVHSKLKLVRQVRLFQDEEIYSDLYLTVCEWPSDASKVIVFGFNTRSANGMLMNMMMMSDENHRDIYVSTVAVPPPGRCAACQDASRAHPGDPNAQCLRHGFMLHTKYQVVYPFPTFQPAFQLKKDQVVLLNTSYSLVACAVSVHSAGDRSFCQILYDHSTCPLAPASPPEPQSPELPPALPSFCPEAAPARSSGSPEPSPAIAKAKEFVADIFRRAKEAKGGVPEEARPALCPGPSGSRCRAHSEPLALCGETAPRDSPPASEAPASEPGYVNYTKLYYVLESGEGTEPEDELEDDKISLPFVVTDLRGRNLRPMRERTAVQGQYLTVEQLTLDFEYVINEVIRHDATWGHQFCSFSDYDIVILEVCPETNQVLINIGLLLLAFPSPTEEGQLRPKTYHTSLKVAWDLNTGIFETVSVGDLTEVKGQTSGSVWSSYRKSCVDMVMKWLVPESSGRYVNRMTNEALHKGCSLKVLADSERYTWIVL
UniProt Q9Y4B6: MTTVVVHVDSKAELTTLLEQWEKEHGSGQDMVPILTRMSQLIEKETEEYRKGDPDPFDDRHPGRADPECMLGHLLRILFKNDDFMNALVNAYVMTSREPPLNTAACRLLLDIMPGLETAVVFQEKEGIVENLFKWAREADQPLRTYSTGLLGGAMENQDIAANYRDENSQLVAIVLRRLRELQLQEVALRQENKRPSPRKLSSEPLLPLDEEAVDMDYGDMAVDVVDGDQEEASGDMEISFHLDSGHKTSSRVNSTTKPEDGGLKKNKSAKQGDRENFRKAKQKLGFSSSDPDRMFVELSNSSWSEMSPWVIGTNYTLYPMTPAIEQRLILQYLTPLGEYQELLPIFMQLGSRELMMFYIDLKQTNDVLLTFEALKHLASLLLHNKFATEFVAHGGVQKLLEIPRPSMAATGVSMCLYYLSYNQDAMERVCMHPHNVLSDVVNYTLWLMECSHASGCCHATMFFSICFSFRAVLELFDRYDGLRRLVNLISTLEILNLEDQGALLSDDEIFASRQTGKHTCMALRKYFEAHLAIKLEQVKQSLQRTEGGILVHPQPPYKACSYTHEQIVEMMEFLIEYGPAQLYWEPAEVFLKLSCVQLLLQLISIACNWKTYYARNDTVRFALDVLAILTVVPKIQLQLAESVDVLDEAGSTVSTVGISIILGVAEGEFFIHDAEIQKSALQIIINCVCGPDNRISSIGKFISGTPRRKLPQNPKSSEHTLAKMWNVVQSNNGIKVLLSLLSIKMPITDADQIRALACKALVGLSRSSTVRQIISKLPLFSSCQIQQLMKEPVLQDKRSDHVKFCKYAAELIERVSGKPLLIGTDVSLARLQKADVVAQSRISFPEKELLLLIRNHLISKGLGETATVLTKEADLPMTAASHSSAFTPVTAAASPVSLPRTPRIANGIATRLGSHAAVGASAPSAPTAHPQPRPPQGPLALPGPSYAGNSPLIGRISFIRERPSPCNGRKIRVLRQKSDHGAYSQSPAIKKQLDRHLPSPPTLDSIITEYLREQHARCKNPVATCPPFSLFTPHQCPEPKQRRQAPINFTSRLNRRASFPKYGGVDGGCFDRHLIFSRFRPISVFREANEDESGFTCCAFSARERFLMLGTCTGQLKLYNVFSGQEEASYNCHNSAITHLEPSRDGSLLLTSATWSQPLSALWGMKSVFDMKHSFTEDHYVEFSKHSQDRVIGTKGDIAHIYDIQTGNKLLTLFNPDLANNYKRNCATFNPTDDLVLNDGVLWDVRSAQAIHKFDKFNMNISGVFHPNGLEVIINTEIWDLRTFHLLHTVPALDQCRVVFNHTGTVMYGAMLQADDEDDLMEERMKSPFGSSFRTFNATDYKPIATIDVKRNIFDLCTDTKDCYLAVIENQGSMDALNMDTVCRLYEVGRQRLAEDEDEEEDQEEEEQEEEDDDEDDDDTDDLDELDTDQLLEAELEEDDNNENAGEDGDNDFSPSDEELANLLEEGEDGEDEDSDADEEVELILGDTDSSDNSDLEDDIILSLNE
UniProt P32321: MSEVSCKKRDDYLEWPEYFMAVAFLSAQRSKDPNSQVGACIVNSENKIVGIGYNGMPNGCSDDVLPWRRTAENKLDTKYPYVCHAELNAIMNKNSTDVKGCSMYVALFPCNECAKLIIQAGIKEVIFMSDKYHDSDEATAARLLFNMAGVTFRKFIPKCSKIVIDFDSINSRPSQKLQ
UniProt Q9Y5B0: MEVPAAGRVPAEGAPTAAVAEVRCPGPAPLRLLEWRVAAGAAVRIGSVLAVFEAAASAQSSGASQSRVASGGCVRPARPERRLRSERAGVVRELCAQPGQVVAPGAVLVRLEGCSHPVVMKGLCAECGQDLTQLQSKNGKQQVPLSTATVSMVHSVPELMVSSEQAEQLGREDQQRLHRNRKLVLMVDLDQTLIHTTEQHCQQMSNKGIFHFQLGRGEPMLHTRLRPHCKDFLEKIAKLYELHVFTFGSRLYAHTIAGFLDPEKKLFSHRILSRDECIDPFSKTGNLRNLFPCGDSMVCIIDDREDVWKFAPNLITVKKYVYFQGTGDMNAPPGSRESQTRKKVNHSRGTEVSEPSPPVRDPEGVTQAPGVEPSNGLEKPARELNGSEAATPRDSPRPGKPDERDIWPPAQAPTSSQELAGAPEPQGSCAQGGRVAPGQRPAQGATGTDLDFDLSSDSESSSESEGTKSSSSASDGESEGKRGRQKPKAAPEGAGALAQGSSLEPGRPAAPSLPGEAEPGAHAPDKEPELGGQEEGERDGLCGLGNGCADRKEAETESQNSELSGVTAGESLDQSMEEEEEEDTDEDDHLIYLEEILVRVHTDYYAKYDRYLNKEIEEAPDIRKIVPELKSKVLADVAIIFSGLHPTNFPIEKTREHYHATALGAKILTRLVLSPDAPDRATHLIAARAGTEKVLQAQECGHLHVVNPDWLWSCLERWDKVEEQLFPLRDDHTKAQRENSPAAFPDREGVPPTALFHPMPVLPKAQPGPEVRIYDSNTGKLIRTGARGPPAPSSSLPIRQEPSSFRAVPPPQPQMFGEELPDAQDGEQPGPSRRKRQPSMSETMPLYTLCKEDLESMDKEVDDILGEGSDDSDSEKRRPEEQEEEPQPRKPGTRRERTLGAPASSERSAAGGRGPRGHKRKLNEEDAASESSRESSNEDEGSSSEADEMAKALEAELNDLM
UniProt P61803: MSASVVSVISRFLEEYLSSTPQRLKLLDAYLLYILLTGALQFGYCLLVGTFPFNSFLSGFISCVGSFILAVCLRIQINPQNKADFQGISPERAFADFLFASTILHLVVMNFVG
UniProt Q96C86: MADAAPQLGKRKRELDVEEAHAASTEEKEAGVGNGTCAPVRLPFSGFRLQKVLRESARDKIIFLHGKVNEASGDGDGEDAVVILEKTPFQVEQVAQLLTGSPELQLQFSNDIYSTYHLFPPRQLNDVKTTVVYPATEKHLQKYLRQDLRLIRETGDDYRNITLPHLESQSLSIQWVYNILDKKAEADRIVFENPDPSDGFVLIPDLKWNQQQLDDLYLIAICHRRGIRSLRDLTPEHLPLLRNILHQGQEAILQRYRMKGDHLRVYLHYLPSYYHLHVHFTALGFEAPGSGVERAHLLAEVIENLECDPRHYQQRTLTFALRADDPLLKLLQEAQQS
UniProt P04080: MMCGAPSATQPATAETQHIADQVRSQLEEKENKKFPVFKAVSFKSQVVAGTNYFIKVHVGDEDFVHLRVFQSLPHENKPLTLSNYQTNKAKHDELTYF

log2 fold change, inactive:
DCTN3 (UniProt O75935) 0.022
CWC25 (UniProt Q9NXE8) 0.039
D2HGDH (UniProt Q8N465) 0
CTCF (UniProt P49711) 0.009
CYP20A1 (UniProt Q6UW02) 0
CTH (UniProt P32929) 0.005
CTNNA2 (UniProt P26232) -0.005
CTBP2 isoform 2 (UniProt P56545) -0.017
CSRP1 (UniProt P21291) -0.041
CSTF1 (UniProt Q05048) -0.018
DARS (UniProt P14868) -0.027
CXorf56 (UniProt Q9H5V9) 0.001
CYFIP2 (UniProt Q96F07) 0.012
DCAF15 (UniProt Q66K64) -0.048
CTNND1 (UniProt O60716) 0.039
DCAF1 (UniProt Q9Y4B6) 0.009
DCUN1D4 isoform 3 (UniProt Q92564) -0.012
CYBC1 (UniProt Q9BQA9) -0.027
CTNNA1 isoform 2 (UniProt P35221) -0.06
CUL5 (UniProt Q93034) -0.013
DCTD isoform 2 (UniProt P32321) 0.018
CTPS1 (UniProt P17812) -0.034
CYB5R2 (UniProt Q6BCY4) -0.033
CYB5B, A0A499FJ32 0.009
CST3 (UniProt P01034) 0.041
DCK (UniProt P27707) -0.032
CTDP1 (UniProt Q9Y5B0) 0.055
DAD1 (UniProt P61803) -0.048
CTBP1 (UniProt Q13363) -0.028
DCPS (UniProt Q96C86) -0.014
CSTB (UniProt P04080) 0.054
DCAKD (UniProt Q8WVC6) -0.038
CT45A10 (UniProt P0DMU9) -0.042
DAP3 (UniProt P51398) -0.013

No new results follow: an excerpt of the list.
log2 fold change, inactive:
CTPS1 (UniProt P17812) -0.034
CYB5R2 (UniProt Q6BCY4) -0.033
